Reference: the supplement of paper PMC10849652
This is one part of the list.

Chains of the proteins cited; added tags and fusions are not shown. Lines headed by an entry give the natural chain unless they say otherwise; changes in a name come on top.
UniProt Q9HCS7: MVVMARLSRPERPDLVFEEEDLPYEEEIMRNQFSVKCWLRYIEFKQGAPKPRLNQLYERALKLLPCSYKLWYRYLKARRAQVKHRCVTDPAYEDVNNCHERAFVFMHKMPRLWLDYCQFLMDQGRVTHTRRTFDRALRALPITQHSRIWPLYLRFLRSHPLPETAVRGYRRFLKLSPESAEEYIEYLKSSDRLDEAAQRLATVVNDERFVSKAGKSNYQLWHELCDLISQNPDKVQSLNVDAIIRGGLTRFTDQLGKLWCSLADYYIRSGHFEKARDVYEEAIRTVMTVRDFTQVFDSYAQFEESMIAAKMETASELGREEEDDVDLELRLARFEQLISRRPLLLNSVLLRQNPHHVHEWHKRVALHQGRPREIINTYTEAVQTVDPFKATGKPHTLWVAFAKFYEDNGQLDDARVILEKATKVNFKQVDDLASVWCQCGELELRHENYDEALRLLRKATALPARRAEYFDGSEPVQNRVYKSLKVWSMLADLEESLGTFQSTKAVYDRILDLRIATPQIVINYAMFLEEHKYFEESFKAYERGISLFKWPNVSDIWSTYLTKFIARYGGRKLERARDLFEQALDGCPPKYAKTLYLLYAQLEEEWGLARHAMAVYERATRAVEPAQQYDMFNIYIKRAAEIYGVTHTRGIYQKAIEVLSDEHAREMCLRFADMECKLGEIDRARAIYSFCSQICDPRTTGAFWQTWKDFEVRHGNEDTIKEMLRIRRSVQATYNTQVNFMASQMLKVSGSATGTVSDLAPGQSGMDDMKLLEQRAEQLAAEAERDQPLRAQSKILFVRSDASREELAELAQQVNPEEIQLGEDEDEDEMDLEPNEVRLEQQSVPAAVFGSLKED
UniProt Q7Z5K2: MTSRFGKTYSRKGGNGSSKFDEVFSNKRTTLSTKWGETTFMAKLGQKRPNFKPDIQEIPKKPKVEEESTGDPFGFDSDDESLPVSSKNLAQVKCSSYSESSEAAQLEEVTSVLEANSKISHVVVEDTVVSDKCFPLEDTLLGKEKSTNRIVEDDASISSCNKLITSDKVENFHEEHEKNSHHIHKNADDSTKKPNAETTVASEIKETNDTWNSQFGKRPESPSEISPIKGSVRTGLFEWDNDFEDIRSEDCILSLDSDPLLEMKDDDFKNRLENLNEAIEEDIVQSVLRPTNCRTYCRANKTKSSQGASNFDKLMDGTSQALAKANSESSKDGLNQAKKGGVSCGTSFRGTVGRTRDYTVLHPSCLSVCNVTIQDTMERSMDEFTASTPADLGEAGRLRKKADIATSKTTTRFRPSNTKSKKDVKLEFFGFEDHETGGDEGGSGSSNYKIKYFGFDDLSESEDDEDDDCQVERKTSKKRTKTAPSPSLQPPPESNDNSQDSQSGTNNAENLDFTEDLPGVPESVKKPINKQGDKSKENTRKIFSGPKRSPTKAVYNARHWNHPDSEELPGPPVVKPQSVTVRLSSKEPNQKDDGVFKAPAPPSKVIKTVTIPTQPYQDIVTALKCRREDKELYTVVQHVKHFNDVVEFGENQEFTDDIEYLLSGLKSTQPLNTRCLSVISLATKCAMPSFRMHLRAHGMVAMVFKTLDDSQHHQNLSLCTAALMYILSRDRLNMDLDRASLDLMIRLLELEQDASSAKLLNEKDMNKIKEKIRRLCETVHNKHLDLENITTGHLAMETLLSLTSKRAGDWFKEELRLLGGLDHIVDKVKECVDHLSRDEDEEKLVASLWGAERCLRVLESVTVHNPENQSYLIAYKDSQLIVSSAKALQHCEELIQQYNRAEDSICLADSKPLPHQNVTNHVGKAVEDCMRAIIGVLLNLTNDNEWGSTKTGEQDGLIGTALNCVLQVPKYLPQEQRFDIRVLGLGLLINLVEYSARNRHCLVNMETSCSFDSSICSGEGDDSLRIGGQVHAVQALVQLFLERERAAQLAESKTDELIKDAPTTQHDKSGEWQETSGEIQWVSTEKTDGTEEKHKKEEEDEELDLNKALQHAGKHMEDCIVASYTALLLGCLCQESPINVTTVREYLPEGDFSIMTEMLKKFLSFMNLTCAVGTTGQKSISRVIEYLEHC
UniProt Q9Y4P8: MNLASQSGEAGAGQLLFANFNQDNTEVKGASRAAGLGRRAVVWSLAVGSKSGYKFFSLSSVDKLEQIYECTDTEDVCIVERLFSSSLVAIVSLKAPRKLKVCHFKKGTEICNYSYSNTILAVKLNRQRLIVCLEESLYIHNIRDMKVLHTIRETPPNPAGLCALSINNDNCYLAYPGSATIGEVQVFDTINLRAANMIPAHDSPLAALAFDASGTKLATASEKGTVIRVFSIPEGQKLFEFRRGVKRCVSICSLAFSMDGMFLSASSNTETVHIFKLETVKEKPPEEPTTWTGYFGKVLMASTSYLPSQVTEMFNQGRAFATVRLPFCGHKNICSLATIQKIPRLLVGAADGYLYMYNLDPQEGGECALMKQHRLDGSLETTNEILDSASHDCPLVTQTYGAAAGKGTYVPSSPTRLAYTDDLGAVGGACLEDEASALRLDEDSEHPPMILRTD
UniProt Q15061: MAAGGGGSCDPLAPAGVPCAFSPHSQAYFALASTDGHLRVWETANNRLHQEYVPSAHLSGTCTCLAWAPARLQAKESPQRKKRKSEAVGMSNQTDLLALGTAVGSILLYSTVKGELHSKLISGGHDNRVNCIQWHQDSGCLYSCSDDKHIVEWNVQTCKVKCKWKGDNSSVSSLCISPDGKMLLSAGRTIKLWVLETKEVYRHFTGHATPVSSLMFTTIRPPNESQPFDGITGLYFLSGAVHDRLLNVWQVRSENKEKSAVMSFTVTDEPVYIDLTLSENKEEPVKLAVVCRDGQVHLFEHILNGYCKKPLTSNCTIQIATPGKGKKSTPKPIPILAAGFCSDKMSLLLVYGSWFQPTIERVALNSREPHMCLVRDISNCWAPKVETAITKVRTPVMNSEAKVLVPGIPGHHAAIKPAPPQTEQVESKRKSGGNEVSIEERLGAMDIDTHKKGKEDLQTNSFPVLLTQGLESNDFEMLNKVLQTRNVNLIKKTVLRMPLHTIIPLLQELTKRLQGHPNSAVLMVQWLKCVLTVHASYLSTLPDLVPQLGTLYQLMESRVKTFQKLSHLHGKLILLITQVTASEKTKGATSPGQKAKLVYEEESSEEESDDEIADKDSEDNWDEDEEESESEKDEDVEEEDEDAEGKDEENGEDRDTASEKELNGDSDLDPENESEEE
UniProt Q9H270: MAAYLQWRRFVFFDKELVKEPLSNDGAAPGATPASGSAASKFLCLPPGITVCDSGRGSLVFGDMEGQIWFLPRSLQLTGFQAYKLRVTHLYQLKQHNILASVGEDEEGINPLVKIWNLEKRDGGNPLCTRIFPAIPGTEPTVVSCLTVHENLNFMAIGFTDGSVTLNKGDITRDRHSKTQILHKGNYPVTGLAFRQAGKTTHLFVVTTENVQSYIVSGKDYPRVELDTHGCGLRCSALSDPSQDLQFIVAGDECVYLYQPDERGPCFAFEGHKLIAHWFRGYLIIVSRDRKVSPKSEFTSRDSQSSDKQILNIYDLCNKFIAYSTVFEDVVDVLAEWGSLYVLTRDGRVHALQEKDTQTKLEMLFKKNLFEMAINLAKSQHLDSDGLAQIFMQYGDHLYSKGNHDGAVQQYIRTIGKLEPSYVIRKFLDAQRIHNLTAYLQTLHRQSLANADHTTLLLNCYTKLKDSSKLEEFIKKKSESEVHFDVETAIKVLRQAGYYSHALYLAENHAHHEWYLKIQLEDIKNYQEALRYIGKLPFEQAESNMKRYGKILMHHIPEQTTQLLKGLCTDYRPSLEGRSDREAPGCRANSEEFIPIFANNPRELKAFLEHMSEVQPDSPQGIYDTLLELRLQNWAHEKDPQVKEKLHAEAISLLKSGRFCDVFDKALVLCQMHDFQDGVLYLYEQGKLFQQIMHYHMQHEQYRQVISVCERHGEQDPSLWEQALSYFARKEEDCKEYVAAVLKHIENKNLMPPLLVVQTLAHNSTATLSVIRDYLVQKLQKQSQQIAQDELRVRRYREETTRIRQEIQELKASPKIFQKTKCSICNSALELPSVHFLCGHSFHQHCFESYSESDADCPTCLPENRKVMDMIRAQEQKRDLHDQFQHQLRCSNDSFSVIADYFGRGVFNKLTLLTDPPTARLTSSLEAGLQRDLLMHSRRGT
UniProt Q6UXN9, whole entry, looked up: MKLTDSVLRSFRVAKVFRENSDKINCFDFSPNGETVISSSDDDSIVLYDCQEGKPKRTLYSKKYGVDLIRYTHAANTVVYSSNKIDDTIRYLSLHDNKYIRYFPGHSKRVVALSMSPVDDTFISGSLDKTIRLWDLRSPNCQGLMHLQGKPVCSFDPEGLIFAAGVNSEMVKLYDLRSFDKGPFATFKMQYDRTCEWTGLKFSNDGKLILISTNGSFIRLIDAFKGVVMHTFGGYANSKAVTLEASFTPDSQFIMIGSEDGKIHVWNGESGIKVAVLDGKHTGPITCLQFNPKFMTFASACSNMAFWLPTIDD
UniProt Q8N2E2: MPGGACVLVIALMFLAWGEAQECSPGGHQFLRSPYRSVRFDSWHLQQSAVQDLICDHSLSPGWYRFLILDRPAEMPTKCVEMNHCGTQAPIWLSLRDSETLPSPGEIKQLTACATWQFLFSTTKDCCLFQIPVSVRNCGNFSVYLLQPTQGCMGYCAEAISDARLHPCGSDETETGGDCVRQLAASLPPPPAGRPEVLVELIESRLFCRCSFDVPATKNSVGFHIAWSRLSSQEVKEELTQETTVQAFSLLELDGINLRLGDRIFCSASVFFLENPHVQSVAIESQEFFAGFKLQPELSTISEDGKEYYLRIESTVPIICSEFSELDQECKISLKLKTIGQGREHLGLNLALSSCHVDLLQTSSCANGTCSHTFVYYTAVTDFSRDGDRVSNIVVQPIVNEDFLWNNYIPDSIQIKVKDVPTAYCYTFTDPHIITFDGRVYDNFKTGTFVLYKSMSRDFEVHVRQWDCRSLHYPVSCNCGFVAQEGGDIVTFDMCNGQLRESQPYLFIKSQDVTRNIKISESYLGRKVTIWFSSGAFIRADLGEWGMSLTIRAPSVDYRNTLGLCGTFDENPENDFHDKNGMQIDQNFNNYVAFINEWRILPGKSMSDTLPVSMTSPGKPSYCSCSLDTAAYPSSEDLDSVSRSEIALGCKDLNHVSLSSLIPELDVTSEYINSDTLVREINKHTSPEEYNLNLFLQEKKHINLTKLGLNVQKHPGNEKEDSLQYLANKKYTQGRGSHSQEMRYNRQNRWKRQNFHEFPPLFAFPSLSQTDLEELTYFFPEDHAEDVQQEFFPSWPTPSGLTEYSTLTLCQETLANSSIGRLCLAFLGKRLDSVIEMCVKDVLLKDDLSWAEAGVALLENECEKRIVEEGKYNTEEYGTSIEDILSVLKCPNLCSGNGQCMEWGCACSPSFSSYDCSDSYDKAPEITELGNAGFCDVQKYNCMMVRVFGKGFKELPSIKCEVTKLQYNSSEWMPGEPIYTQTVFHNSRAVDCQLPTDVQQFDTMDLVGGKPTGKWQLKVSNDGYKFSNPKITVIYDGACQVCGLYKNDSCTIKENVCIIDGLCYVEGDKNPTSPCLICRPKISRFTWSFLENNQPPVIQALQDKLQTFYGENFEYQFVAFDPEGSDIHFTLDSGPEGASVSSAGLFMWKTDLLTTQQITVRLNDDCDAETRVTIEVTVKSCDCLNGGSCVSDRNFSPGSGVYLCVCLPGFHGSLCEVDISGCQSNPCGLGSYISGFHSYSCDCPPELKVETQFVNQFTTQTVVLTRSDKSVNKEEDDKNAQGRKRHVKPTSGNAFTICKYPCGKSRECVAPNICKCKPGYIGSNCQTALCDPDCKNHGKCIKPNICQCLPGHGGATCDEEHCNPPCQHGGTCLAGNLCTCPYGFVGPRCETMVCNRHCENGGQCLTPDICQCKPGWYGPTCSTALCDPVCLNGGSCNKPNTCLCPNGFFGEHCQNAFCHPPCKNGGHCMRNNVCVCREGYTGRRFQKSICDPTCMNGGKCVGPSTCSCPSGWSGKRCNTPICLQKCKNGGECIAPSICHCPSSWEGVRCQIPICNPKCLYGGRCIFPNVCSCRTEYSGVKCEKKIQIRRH

Tests used:
Test in all cases: log2 fold change, soluble protein after heating vs DMSO (PISA); higher = thermal stabilisation; K562 lysate, 10 uM; active = over 0.2 and 3.5 SD of the protein, either way, in both replicates (recomputed)
[1] = compound: C1=CC=C(C=C1)[C@H](COC2=CC3=C(C=C2)NC(=O)N3)NC(=O)C4=CC=CN(C4=O)CC5=CC(=C(C=C5)F)F
Procedure, shortened: (§1)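 Thermal stability, expressed as log-two fold change relative to solvent controls, is given from duplicates. Crude K562 extract in PBS pH 7.4 with 1 mM MgCl2, at 1 mg/mL protein, was treated with 10 μM compound for 30 min and heated in aliquots for 3 min across 48°C-58°C. After pooling, adjustment to 0.5% NP-40 at 4°C and centrifugation at 21,000xg for 90 min, supernatant protein was measured by TMTpro 16plex LC-MS/MS with channel sums equalised.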

[2] = compound: CC1=C(SC2=C1C(=N[C@H](C3=NN=C(N32)C)CC(=O)N)C4=CC=C(C=C4)Cl)C
Procedure, shortened: as §1

[3] = compound: CC1=C2C(=CC=C1)N=C(N(C2=O)C3=CC=CC=C3C)CN4C=NC5=C(N=CN=C54)N
Procedure, shortened: as §1

[4] = compound: Cc1sc2c(c1C)C(c1ccc(Cl)cc1)=N[C@@H](CC(=O)OC(C)(C)C)c1nnc(C)n1-2
Procedure, shortened: as §1

[5] = compound: c1ccc([C@@H]2C[C@H]2NC2CCNCC2)cc1
Procedure, shortened: as §1

Measured: log2 fold change

WDR91 (UniProt A4D1P6)
inactive: [1] -0.009 | [2] 0.027 | [3] 0.009 | [4] -0.02 | [5] 0.026

WDR3 (UniProt Q9UNX4)
inactive: [1] 0.039 | [2] -0.026 | [3] 0.006 | [4] -0.014 | [5] 0.056

XAB2 (UniProt Q9HCS7)
inactive: [1] -0.009 | [2] 0.05 | [3] 0 | [4] -0.018 | [5] 0.035

WAPL isoform 3 (UniProt Q7Z5K2)
inactive: [1] 0.014 | [2] 0.013 | [3] 0.025 | [4] -0.018 | [5] -0.048

WIPI2 (UniProt Q9Y4P8)
inactive: [1] 0.03 | [2] -0.033 | [3] -0.008 | [4] -0.055 | [5] -0.096

WDR43 (UniProt Q15061)
inactive: [1] 0.063 | [2] -0.006 | [3] 0.008 | [4] 0.018 | [5] -0.035

VPS11 (UniProt Q9H270)
inactive: [1] -0.018 | [2] -0.001 | [3] 0.044 | [4] 0.048 | [5] 0.029

WDR82 (UniProt Q6UXN9)
inactive: [1] 0.004 | [2] 0.003 | [3] 0.01 | [4] 0.027 | [5] -0.02

VWDE (UniProt Q8N2E2)
inactive: [1] 0.08 | [2] -0.028 | [3] 0.079 | [4] 0.048 | [5] 0.015
